{
  "sequences": {"note": "Protein sequences, listed by entry. Tags and fused reporters are not part of them.", "UniProt P13945, whole entry": "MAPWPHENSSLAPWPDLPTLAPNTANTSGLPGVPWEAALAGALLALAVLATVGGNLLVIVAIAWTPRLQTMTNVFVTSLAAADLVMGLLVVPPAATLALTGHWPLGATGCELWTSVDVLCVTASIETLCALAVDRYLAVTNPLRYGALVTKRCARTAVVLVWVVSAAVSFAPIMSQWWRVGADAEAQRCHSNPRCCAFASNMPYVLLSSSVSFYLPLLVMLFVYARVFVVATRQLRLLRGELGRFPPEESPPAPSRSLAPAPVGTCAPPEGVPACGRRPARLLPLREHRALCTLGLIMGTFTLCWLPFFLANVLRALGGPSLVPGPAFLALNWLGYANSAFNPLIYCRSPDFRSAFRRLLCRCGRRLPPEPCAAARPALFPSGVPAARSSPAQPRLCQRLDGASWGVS"},
  "source": "patent US20160235727A1",
  "about": "“NOVEL PYRROLIDINE DERIVED BETA 3 ADRENERGIC RECEPTOR AGONISTS” (Merck Sharp & Dohme Corp., priority 2013, published 2016)",
  "target": "human β3-AR (Homo sapiens, UniProt P13945)",
  "experiment": "cAMP functional agonist assay (LANCE TR-FRET) in CHO cells expressing cloned human β3-AR",
  "conditions": "tested form: TFA",
  "note": "Structures were worked out from names or drawings and are uncertain.",
  "data": [
    {"smiles": "Cc1cc(CN(C)Cc2ccc(C[C@@H]3CC[C@H]([C@H](O)c4ccc(Cl)cc4)N3)cc2)cnc1F", "values": [
      {"measurement": "Fold drop in potency vs. 2-chloropyridine analog", "setting": "EC50 of comparative example divided by EC50 of corresponding 2-chloropyridine compound", "value": 5.7, "unit": "fold"},
      {"measurement": "Human β3-AR Agonist Activity (%)", "setting": "percent maximum activation relative to isoproterenol", "value": 95, "unit": "%"},
      {"measurement": "EC50", "setting": "read-out: Human β3-AR Agonism EC50, CHO cells stably expressing cloned human β3-adrenoceptor, cAMP release", "value": 3, "unit": "nM"}
    ]}
  ]
}
